For at least one entry, the source does not settle the construct or the ends of the probe. At least one verdict rests on a figure or table, not on a statement of the authors.
Test system: MBP-core RAG1 (cRAG1) + MBP-core RAG2 (cRAG2) + HMGB1
Assay: EMSA
Conditions: Ca2+ (1 mM), EMSA: 25 mM MOPS pH 7.0, 50 mM KOAc, 1 mM DTT, 100 ug/ml BSA, 1 mM Ca2+ (in place of Mg2+), 2 nM probe, ~80 nM RAG, 400 nM HMGB1, 37 C 15 min, 4% gel at 4 C, recombinant protein, protein details: MBP,MBP,none (N-terminal 6xHis removed by TEV), label: 32P

Sequence | binding result (HMGB1, complexes SC1/2, HSC1/2) | binding result (HMGB1, additional slower complex C)
GATCTGGCCTGTCTTACACAGTGCTACAGACTGGAACAAAAACCCTGCAG (double strand) [12-RSS] | binds | –
GATCTGGCCTGTCTTACACAGTGGTAGTACTCCACTGTCTGGCTGTACAAAAACCCTGCAG (double strand) [23-RSS] | binds | –
CTGCAGGGTTTTTGTTCCAGTCTGTAGCACTGTGCACAGTGGTAGTACTCCACTGTCTGGCTGTACAAAAACCCTGCAG (double strand) [SJ (signal joint; SJ1, MBNSJ)] | – | binds
